# Primary screen of a compound library

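Phenotypic screen: M. tuberculosis growth, glucose 7H9 medium, 3 days; the read-out is not stated. Concentration: 50 µM. Higher reads as more growth inhibition (inferred: compounds with an IC50 in retests scored well above the rest). Size under these conditions: about 69,000 compounds, about 760 of them at 50% or above in at least one test.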

The filed quantity is “Percent Effect” (%).
The controls that fix the scale are not given in the record; negative values are as filed.
The compounds are a random part of those screened.
Two or more numbers in one place are separate tests of the same structure; such repeats can differ widely.

{"compound": "CC(NC(=O)CCCc1nc(C(C)(C)C)no1)c1nnc2n1CCC2", "stereo": "centres undefined", "effect": "3.074 and 8.82"}
{"compound": "O=C(O)C(F)(F)F.O=C(O)C(F)(F)F.O=C(O)C(F)(F)F.[H][C@@]12CCCO[C@]1([H])[C@H](N(C)Cc1ccco1)CN2Cc1nccn1C", "effect": 9.505}
{"compound": "Cc1nc(CCNC(=O)C2CCN(C(C)C)CC2)sc1Cl", "effect": -6.655}
{"compound": "Cc1cccc(C(C(=O)N2CC(Oc3ccccc3F)C2)N(C)C)c1", "stereo": "centres undefined", "effect": -20.48}
{"compound": "Cc1cnc(CN(C)C2CCCN(Cc3noc(C4CC4)n3)C2)cn1", "stereo": "centres undefined", "effect": -33.65}
{"compound": "Cc1cc(CNc2ccc(C(=O)N3CCCC(C)C3)cc2C)no1", "stereo": "centres undefined", "effect": 0.8968}
{"compound": "Cc1nc(CN2CCC3(CCCN(Cc4cccnc4)C3)C2=O)cs1.O=C(O)C(F)(F)F.O=C(O)C(F)(F)F.O=C(O)C(F)(F)F", "stereo": "centres undefined", "effect": -66.1}
{"compound": "CO[C@@H]1CCN(C(=O)Cc2ccc(F)cc2)[C@@H]1Cc1cccnc1.O=C(O)C(F)(F)F", "effect": 16.11}
{"compound": "CCC(CC)C(=O)N1CCN(Cc2nc3ccccc3c(=O)[nH]2)CC1", "effect": 3.382}
{"compound": "O=c1[nH]c2c(c(=O)n1C1CCCCC1)CCC2NCc1ccccc1", "stereo": "centres undefined", "effect": 29.7}
{"compound": "Cc1cnn(CC2CCCN2CC(=O)Nc2cc(C(C)C)no2)c1", "stereo": "centres undefined", "effect": -22.1}
{"compound": "Cc1occc1CNC(=O)Nc1ccc2nc(N3CCOCC3)oc2c1", "effect": 7.751}
{"compound": "CN(CC(=O)N1CCC(Oc2ccc(C(F)(F)F)cn2)CC1)S(C)(=O)=O", "effect": 16.39}
{"compound": "c1cc(CN2CCC(CCn3cccn3)CC2)cc(Cn2cccn2)c1", "effect": -2.32}
{"compound": "COc1cccc(CN2CCC(c3nn(CCN)c4nccnc34)C2)c1", "stereo": "centres undefined", "effect": -24.43}
{"compound": "O=C(NCc1ccc2nonc2c1)C1CCN(C(=O)C2CCC2)CC1", "effect": 19.69}
{"compound": "CC[C@@H](c1ccccc1)n1c(CCN)n[nH]c1=O", "effect": 22.69}
{"compound": "Cn1cc(CC(CNC(=O)Nc2cccc(Cl)c2)C(N)=O)cn1", "stereo": "centres undefined", "effect": -4.219}
{"compound": "Cn1c(-c2ccccc2Cl)nc2cc(C(=O)NC(CO)CO)cnc21", "effect": "2.172 and 65.01"}
{"compound": "CSCc1ccc(C(=O)NCCCNc2ccc(C(F)(F)F)cn2)cc1", "effect": 70.86}
{"compound": "O=C(c1sccc1C1CC1)N1CCN(c2ncccn2)CC1", "effect": 6.061}
{"compound": "O=C1CN(c2cc(-c3ccccc3F)nc3ccnn23)CCCN1", "effect": 13.23}
{"compound": "O=C(CCc1ccccn1)N1CCN(C(=O)CC2CCCCC2)CC1", "effect": 14.61}
{"compound": "CO[C@@H]1CC[C@@H](NS(=O)(=O)c2cn(C)nc2C)[C@H]1O", "effect": -27.64}
{"compound": "Cc1ccsc1CN(CCCC(F)(F)F)Cc1ccccn1", "effect": 20.49}
{"compound": "CCn1ncc(S(=O)(=O)N[C@@H]2CC[C@@H](n3ccnc3C)[C@@H]2O)c1C", "effect": -8.59}
{"compound": "[H][C@@]12CN(c3ncnc4[nH]ccc34)C[C@]1(C(=O)O)CN(CC1CC1)C2=O", "effect": 10.42}
{"compound": "CC(C)(O)CCc1cccc(C(=O)NCC2CN(S(C)(=O)=O)CCO2)c1", "stereo": "centres undefined", "effect": -18.87}
{"compound": "CC1(COc2ccccc2)NCCc2[nH]cnc21", "stereo": "centres undefined", "effect": -20.14}
{"compound": "CC(NCCN1CCC(N(C)C)CC1)c1ccc(Cl)s1", "stereo": "centres undefined", "effect": "13.17 and -7.794"}
{"compound": "CN(C)[C@@H]1CCN(CC2CC2)[C@H]1Cc1cnn(C)c1.O=C(O)C(F)(F)F.O=C(O)C(F)(F)F", "effect": -31.56}
{"compound": "COc1ccc(-c2noc(CN3CCc4cncnc4C3)n2)cc1", "effect": 9.378}
{"compound": "Cc1nn(C)c(C)c1CN(C)C(=O)c1cc(NC(=O)C2CC2)n(C)n1", "effect": 15.75}
{"compound": "CC(C)c1nnc(NC(=O)C2CSCN2C(=O)C2CCC2)s1", "stereo": "centres undefined", "effect": 9.071}
{"compound": "Cc1cc(C)n(CC2CCCN2C(=O)c2ccc(NC3CC3)nc2)n1", "stereo": "centres undefined", "effect": -10.81}
{"compound": "Cc1noc(C)c1CN1CC2(CCN(C(=O)c3cccn3C)C2)CC1=O", "stereo": "centres undefined", "effect": "-4.129 and -6.043"}
{"compound": "CN(Cc1ccccc1F)C(C(N)=O)c1ccccc1", "stereo": "centres undefined", "effect": -30.69}
{"compound": "O=C(O)C(F)(F)F.[H][C@@]12CN(CC)CCO[C@]1([H])CN(C(=O)COC1CCCC1)C2", "effect": "-22.52 and -4.538"}
{"compound": "CN1CCCC(CNC(=O)N(C)Cc2ccc(Cl)c(F)c2)C1", "stereo": "centres undefined", "effect": "-7.879 and -24.78"}
{"compound": "CN(Cc1ccsc1)C(=O)COC(=O)c1cc(Cl)c[nH]1", "effect": 28.41}
{"compound": "CC(=O)NCc1ccc(C(=O)N2CCCC2c2c(C)nn(C)c2C)o1", "stereo": "centres undefined", "effect": -1.06}
{"compound": "CC(NC1(CNS(C)(=O)=O)CCOCC1)c1ccccc1", "stereo": "centres undefined", "effect": "2.797 and -6.595"}
{"compound": "[H][C@@]12CN(Cc3cc4ccccc4o3)C[C@]1(C(=O)O)CN(CC1CC1)C2=O", "effect": 0.1616}
{"compound": "Cc1cc(CN2CCCC2)cc(Oc2ccc(C(F)(F)F)cn2)c1", "effect": 13.38}
{"compound": "COCc1cc(N(C)CCc2c(C)n[nH]c2C)ncn1", "effect": -12.84}
{"compound": "CCOCCn1nc(C)cc1C(=O)N1CCCC[C@H](N(C)C)C1", "effect": -32.16}
{"compound": "CNC(=O)c1nc(CN2CCOC(C(F)(F)F)C2)no1", "stereo": "centres undefined", "effect": -63.78}
{"compound": "CCCS(=O)(=O)N1CCC2(CC1)CN(C(=O)N(C)C)c1ccccc12", "effect": "2.675 and -6.488"}

The first 6 entries again:

Compound	effect
CC(NC(=O)CCCc1nc(C(C)(C)C)no1)c1nnc2n1CCC2 (centres undefined)	3.074 and 8.82
O=C(O)C(F)(F)F.O=C(O)C(F)(F)F.O=C(O)C(F)(F)F.[H][C@@]12CCCO[C@]1([H])[C@H](N(C)Cc1ccco1)CN2Cc1nccn1C	9.505
Cc1nc(CCNC(=O)C2CCN(C(C)C)CC2)sc1Cl	-6.655
Cc1cccc(C(C(=O)N2CC(Oc3ccccc3F)C2)N(C)C)c1 (centres undefined)	-20.48
Cc1cnc(CN(C)C2CCCN(Cc3noc(C4CC4)n3)C2)cn1 (centres undefined)	-33.65
Cc1cc(CNc2ccc(C(=O)N3CCCC(C)C3)cc2C)no1 (centres undefined)	0.8968

Source: ChEMBL document CHEMBL3988442, “University of Dundee, Small-Polar-MMV Screening Library” (2021).